Assay results as given in publication PMC9045202.
No constants are given. Whether binding was seen depends on the method and setting. Some results given as binding are weak or reduced against the parent protein; the word gives no strength.

Protein sequences, listed by entry. Tags and fused reporters are not part of them. Residues count along the entry.
UniProt P02787, residues 20-698: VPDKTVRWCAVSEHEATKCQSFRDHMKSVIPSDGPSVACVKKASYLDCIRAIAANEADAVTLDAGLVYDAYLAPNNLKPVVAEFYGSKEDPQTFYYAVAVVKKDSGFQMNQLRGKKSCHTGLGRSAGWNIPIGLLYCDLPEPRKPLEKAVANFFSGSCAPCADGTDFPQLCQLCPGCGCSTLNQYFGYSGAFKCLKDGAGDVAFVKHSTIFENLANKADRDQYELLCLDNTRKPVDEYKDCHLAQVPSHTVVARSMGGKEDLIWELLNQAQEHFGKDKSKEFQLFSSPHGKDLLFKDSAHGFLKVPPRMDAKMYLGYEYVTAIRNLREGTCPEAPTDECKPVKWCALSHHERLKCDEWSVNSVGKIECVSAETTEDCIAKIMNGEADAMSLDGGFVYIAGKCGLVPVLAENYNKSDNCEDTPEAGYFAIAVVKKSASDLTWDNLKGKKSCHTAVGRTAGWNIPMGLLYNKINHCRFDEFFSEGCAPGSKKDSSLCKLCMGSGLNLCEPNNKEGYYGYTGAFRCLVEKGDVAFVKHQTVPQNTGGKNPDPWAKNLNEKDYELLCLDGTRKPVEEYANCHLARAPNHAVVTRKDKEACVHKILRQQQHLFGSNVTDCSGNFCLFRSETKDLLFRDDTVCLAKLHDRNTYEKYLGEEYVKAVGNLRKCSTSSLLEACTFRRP

How the values were obtained:
[1] = molecular target: EFG with Dm5 deletion displayed on the surface of E. coli BL21 (BL21-pEImC-ΔDm5) (Escherichia coli (ExPEC strain RS218)) (UniProt P0A6M8); experiment: fluorescence intensity of labelled ligand bound to bacteria; BL21 strains with pEImC plasmids incubated with 20 μg/mL fluor-TF alone, 1 h at 4°C; fluorescence of 10^7 bacterial cells, excitation 485 nm, emission 535 nm; only the binder purified
[2] = molecular target: EFG with Dm1 deletion displayed on the surface of E. coli BL21 (BL21-pEImC-ΔDm1) (Escherichia coli (ExPEC strain RS218)) (UniProt P0A6M8); experiment: as above
[3] = molecular target: recombinant EFG with Dm1 deletion (ΔDm1) (Escherichia coli (ExPEC strain RS218)) (UniProt P0A6M8); experiment: ELISA; rEFG, its deletion proteins or rHis (0, 0.01, 0.1, 0.2, 0.5 μM) immobilised on ELISA plates, blocked with 2% BSA; 0.2 μM bio-TF (or bio-apo-TF) then HRP-streptavidin, 2 h at 4°C; both purified
[4] = molecular target: EFG with Dm5 deletion displayed on the surface of E. coli BL21 (BL21-pEImC-ΔDm5) (Escherichia coli (ExPEC strain RS218)) (UniProt P0A6M8); experiment: bio-TF recovered with bacteria isolated from macrophages, blot with HRP-streptavidin; THP-1 cells infected with BL21 strains with pEImC plasmids, 1 mg bio-TF for 1 h at 4°C then 1 h at 37°C; intracellular bacteria isolated (0.1% SDS lysis, washes, 0.22 μm filter) and blotted; bio-TF band relative to LexA band; only the binder purified
[5] = molecular target: EFG with Dm1 deletion displayed on the surface of E. coli BL21 (BL21-pEImC-ΔDm1) (Escherichia coli (ExPEC strain RS218)) (UniProt P0A6M8); experiment: as above

Row | Substance | binding [1] | binding [2] | binding [3] | binding [4] | binding [5]
1 | fluorescein conjugated holo-TF (fluor-TF) (from UniProt P02787 20-698) | binds | binds | – | – | –
2 | EZ-Link sulfo-NHS-LC-desthiobiotin-labeled holo-TF (bio-TF) (from UniProt P02787 20-698) | – | – | binds | binds | binds
